Source: PubChem BioAssay AID1645886 (National Center for Advancing Translational Sciences (NCATS), 2021)
Several values for one entry are separate records, joined by “and”; a condition that tells them apart may be missing. Equal values may be shown once. Most of the hits are listed elsewhere, so they are rarer here than in the full data. Results filed as inconclusive are left out. Activity calls are given as the source filed them. The call rests on the fitted dose curve; in most records, active means well fitted inhibition curve with a large enough effect; inconclusive means small, poorly fitted or top-dose-only effect; inactive means no such curve, though single readings can be large or run the other way.

By UniProt entry, the sequences of proteins in these tests, tags left out. Where a name states a change or a piece, a line headed by the entry shows the natural chain unless it says otherwise.
UniProt Q8WZA2: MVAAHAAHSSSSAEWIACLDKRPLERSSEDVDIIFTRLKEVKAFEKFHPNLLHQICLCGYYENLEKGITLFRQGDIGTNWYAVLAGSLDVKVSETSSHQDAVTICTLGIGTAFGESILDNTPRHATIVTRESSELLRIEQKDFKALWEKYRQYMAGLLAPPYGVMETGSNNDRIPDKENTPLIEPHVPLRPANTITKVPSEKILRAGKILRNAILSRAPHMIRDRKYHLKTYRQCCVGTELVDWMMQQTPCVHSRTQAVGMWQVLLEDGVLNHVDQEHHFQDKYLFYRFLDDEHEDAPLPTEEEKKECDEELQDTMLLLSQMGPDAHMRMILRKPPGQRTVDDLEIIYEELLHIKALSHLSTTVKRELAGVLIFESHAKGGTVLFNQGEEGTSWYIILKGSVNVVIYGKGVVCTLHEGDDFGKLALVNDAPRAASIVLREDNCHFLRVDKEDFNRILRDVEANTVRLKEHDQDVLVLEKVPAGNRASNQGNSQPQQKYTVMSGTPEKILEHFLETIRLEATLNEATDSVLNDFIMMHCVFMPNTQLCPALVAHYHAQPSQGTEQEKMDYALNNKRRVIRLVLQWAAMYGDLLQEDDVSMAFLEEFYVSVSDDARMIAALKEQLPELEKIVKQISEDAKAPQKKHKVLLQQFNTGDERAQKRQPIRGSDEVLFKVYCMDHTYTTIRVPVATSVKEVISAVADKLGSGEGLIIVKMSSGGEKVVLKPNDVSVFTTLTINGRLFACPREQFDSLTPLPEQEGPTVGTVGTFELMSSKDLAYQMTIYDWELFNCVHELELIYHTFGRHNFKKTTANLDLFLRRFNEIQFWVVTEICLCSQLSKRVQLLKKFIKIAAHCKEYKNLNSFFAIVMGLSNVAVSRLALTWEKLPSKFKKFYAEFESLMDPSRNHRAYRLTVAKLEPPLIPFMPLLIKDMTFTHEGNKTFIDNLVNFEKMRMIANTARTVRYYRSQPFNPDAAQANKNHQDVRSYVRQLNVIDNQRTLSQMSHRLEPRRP

Molecular target: Rap guanine nucleotide exchange factor 4 (Homo sapiens) (UniProt Q8WZA2)
Test: Validation qHTS for antagonist of cAMP-regulated guanine nucleotide exchange factor 4 (EPAC2); further: nearly all actives have a fitted effect of over 40% in size
Settings: EPAC2 Rap1B BODIPY-GDP exchange, fluorescence
Excerpt: Principle Investigator: Xiaodong Cheng Ph.D. The University of Texas Medical Branch, […], TX MLPCN Grant: NS066510 In multi-cellular eukaryotic organisms, the effects of cAMP are transduced by two ubiquitously-expressed intracellular cAMP receptors, the classic protein kinase A/cAMP-dependent protein kinase (PKA/cAPK) and the more recently discovered exchange protein directly activated by cAMP/cAMP-regulated guanine nucleotide exchange factor (EPAC/cAMP-GEF). Both PKA and EPAC are ubiquitously expressed in all tissues, and an increase in intracellular cAMP levels will lead to the activation of both PKA and EPAC. Therefore, careful dissections of the individual role and relative contribution of EPAC and PKA within the overall cAMP signaling in various model systems are critical for further elucidating the mechanism of cAMP signaling. To date no EPAC-specific antagonists and agonist, as well as isoform-specific agonists have been reported, and developing EPAC-specific pharmacological probes to determine the physiological functions that EPAC play in the overall cAMP-mediated signaling remains a major challenge within the research field. […] This qHTS will be used to screen the Molecular Libraries Small Molecule Repository (MLSMR) as a concentration-titration series using the NCGC unique quantitative screening (qHTS) platform to find activators for EPAC1. […] Activators are identified by monitoring the change in fluorescence signal as the exchanged free BODIPY-GDP has a reduced fluorescence compared to Rap1-bound BODIPY-GDP. […]
Briefly, three uL of reagents (100 nM EPAC2, 250 nM RAP1B-BODIPY-GDP, 50 uM GDP) were dispensed into a 1536-well Greiner black solid-bottom medium binding assay plate. […] The assay plates were read at 5 minute intervals for 30 minutes in the ViewLux plate reader using 480nm excitation and 540nm emission filters. […]

## Cc1cccc(CCN2CCC(C(=O)c3ccc(NS(C)(=O)=O)cc3)CC2)n1
At 112 µM (top of the series)
  activity, negative = inhibition: inactive: -16.3% and inactive: -18.9%
At 151 µM (top of the series)
  activity, negative = inhibition: inactive: -6.06%

## Nc1ccc(N)c([N+](=O)[O-])c1
At 239 µM (top of the series)
  activity, negative = inhibition: inactive: -18.2%
